Measured values published in the supplement of paper PMC12819154, “High-throughput peptide-centric local stability assay extends protein–ligand identification to membrane proteins, tissues and bacteria” (Nature Structural & Molecular Biology, 2025).
Only a part is listed here, and it is no random draw. Most values lie at the level of the controls, where differences are scatter.
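Also: lysate desalted by size exclusion to strip endogenous ATP, peptide intensities built from DIA-NN precursor signals, and peptides missing any value discarded before comparison.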

Amino acid sequences for entries named in this document (tags omitted). A change or cut given only in a name is not applied to a line headed by its entry.
UniProt P03030: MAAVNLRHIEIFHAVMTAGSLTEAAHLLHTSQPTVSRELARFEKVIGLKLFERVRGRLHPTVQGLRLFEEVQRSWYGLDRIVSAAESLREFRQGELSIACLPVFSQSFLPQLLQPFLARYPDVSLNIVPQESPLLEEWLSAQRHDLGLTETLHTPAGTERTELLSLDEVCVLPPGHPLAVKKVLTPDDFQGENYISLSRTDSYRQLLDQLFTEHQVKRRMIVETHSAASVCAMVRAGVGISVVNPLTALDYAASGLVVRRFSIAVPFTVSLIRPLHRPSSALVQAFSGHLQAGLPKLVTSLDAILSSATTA
UniProt P05050: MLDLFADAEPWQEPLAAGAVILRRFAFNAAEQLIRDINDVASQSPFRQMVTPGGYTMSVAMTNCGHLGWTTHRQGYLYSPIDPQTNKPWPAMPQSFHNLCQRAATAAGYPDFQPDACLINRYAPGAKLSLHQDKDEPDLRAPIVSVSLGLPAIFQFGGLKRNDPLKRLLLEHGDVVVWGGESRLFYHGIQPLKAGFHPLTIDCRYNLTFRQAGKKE
UniProt P00370: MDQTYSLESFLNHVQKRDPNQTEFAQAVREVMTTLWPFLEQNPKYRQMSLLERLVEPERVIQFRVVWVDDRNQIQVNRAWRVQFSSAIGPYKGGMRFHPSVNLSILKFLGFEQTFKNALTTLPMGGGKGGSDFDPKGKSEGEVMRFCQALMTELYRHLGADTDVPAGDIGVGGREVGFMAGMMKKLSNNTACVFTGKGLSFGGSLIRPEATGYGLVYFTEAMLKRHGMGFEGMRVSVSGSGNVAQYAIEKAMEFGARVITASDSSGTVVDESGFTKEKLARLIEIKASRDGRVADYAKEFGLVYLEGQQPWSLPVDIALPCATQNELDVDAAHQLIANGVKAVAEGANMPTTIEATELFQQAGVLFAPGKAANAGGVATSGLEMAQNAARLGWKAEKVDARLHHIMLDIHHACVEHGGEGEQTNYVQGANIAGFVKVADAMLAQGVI
UniProt P02942: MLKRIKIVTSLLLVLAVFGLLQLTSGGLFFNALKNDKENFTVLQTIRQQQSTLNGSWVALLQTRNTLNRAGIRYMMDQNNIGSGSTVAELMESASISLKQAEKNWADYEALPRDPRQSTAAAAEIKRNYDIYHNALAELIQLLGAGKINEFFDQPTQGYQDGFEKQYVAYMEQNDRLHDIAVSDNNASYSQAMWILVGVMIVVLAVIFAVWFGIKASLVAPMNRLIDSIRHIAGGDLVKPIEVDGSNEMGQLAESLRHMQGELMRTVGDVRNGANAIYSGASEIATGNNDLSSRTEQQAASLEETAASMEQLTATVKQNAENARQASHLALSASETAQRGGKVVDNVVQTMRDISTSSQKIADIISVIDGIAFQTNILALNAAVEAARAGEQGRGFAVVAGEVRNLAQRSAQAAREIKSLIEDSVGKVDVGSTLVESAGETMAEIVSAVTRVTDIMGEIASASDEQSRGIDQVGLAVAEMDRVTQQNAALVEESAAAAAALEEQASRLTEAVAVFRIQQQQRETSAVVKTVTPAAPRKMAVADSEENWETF
UniProt P00895: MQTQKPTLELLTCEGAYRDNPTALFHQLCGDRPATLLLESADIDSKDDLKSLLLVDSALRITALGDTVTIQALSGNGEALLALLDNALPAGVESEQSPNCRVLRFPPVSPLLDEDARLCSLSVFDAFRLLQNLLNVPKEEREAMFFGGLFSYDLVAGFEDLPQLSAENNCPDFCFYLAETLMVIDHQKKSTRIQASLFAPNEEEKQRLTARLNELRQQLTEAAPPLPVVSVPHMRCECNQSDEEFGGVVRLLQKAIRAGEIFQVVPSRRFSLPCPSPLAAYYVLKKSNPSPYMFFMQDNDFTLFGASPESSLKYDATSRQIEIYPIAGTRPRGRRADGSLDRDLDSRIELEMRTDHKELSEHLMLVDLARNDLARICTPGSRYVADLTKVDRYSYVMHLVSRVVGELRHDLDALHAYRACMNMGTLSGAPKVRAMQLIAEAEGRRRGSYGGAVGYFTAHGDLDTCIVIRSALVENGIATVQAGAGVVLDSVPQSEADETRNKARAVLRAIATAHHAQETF
UniProt P02918: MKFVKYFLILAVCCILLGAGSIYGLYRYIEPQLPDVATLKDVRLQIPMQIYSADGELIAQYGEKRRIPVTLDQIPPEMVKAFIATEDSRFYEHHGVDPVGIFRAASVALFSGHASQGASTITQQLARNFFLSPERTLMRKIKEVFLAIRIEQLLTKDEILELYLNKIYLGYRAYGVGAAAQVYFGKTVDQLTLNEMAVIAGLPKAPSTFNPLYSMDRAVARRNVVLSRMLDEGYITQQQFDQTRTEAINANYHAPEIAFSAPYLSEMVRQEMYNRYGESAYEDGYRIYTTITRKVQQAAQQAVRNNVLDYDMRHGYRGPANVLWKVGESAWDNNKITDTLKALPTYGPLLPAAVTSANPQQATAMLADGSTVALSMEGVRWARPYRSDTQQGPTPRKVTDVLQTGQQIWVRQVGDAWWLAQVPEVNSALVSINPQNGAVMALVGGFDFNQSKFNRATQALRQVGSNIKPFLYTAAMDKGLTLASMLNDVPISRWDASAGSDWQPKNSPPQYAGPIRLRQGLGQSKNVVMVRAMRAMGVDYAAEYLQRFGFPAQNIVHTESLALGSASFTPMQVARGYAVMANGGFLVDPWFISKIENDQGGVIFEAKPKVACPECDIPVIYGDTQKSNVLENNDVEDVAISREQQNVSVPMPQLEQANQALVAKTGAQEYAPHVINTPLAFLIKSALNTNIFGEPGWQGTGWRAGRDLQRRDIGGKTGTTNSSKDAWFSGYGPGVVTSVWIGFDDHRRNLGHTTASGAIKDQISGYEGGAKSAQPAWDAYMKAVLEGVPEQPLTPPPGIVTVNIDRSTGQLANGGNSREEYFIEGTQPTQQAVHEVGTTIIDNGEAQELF
UniProt P00803: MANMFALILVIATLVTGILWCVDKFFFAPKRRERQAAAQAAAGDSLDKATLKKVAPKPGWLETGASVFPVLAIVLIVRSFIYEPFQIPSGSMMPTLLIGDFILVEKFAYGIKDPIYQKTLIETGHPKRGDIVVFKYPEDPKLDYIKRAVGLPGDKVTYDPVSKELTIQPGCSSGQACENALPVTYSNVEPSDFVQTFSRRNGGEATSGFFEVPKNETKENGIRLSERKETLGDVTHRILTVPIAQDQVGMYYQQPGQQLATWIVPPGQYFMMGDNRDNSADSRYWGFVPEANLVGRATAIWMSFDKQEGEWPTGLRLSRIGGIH
UniProt P05052: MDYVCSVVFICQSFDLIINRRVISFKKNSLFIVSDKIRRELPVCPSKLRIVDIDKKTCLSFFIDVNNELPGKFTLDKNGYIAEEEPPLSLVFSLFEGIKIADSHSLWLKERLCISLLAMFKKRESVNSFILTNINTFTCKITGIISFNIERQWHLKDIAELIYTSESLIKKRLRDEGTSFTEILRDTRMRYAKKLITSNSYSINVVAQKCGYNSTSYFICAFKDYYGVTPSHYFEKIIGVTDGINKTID
UniProt P00944: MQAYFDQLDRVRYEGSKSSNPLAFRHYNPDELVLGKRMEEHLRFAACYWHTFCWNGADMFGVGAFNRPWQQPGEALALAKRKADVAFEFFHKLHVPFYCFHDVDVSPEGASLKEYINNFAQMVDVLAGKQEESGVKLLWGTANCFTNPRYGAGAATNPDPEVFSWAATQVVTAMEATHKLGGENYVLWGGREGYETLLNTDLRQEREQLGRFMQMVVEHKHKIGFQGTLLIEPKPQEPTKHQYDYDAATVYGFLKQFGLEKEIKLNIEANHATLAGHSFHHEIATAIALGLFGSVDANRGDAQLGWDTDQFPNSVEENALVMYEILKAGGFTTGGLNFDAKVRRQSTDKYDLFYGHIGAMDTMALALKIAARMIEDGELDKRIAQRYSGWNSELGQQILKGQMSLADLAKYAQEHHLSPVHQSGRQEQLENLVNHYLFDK
UniProt P05824: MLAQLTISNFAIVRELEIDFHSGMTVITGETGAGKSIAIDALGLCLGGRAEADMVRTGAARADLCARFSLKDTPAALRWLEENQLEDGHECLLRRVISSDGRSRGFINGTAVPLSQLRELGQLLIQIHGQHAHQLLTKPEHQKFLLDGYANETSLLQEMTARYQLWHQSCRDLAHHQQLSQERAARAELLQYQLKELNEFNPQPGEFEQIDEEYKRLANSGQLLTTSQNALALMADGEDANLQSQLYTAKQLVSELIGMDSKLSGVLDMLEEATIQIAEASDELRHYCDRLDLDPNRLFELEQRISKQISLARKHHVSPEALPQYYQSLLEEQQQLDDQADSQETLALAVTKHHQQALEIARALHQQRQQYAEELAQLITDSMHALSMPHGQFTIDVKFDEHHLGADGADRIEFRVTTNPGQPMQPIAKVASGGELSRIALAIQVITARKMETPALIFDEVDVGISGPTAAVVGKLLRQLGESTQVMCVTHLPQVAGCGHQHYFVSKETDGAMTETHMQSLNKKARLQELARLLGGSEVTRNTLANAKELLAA
UniProt P02921: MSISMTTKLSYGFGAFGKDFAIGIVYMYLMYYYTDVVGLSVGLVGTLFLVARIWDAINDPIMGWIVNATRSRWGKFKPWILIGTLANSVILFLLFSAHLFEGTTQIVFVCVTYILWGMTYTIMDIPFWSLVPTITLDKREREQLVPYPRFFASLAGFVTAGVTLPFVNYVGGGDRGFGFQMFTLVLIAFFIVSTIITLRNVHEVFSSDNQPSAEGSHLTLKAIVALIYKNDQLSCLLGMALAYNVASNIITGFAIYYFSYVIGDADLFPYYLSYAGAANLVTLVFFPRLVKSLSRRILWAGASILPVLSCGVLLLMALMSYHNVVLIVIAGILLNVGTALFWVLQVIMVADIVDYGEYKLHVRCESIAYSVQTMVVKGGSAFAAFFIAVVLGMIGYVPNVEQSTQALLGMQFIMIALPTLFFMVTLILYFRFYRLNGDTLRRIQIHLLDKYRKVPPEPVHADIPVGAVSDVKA
UniProt P04391: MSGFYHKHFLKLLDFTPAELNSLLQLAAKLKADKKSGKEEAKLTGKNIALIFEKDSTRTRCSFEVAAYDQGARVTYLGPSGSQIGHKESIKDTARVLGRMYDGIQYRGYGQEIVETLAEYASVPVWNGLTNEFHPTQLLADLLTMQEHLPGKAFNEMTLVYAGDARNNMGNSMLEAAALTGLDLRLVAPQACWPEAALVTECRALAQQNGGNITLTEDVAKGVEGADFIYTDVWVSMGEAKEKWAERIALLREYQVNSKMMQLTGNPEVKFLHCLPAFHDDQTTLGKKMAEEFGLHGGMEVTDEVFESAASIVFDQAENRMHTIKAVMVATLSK
UniProt P05100: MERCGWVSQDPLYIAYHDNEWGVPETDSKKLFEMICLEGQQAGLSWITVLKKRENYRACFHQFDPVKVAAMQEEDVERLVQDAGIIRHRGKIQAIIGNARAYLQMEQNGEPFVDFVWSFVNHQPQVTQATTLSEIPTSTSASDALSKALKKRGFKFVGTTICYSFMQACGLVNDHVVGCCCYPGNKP
UniProt P00634, whole entry: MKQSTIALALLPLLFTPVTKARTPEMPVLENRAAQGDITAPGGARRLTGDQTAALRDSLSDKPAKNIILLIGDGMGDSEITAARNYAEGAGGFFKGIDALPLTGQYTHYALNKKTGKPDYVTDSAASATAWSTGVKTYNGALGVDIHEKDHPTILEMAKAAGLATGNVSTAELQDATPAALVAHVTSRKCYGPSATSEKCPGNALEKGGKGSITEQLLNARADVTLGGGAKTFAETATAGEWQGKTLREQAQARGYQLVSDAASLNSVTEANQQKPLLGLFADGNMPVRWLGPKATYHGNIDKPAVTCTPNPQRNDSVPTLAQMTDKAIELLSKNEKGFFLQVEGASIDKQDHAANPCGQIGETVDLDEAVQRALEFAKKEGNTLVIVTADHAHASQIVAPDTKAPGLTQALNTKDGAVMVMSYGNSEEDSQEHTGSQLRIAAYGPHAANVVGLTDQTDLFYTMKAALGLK
UniProt P06129: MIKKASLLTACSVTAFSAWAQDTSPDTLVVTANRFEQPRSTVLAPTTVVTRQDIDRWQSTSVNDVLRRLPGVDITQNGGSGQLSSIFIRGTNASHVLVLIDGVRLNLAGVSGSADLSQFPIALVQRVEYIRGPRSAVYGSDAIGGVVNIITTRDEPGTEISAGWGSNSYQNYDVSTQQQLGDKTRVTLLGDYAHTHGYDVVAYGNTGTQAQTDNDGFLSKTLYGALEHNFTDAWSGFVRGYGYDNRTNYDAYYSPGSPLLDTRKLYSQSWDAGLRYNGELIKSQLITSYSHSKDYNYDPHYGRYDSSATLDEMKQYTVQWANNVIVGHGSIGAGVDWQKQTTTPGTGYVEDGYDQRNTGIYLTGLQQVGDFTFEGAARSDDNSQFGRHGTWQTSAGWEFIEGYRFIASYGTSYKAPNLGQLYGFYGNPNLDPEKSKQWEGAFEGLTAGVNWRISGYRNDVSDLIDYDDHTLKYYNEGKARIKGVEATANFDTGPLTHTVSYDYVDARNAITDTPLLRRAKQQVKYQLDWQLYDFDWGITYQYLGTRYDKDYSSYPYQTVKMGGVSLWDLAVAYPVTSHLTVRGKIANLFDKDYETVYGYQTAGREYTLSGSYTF

What follows are targets tested with Nc1ncnc2c1ncn2[C@@H]1O[C@H](COP(=O)(O)OP(=O)(O)OP(=O)(O)O)[C@@H](O)[C@H]1O [adenosine 5'-triphosphate] (assay: log2 fold change of tryptic peptide abundance, ligand vs vehicle (limited proteolysis) (log2 ratio); higher = more trypsin-susceptible (destabilized)). Conditions: ligand concentration: 5 mM; sample: E. coli desalted lysate; replicate design: treated before aliquoting.
Procedure: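 HT-PELSA: desalted E. coli K-12 BW25113 lysate (with 12 mM MgCl2) incubated with 5 mM ATP (pH 7) or water for 30 min at 25 C, then a 4 min trypsin pulse at 22 C. Peptides were quantified by DIA-MS (4 replicates). Value is the peptide log2 fold change (treated/control); negative = stabilized. Scale: negative = ligand-stabilized region.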
In the case of “UniProt P03030 (peptide sequence: QLLDQLFTEHQVK, peptide start residue: 205)”, the log2 fold change is reported as 0.328.
Target “UniProt P00448 (peptide sequence: DFGSVDNFKAEFEK, peptide start residue: 106)” has a log2 fold change of 0.452.
Target “UniProt P02931 (peptide sequence: FTNTSGFANK, peptide start residue: 266)” has a log2 fold change of 0.446.
With “UniProt P05050 (peptide sequence: DINDVASQSPFR, peptide start residue: 36)” the log2 fold change was 1.
Work on “UniProt P00370 (peptide sequence: HLGADTDVPAGDIGVGGR, peptide start residue: 157)” yielded a log2 fold change of 0.419.
Work on “UniProt P06610 (peptide sequence: FLVGRDGK, peptide start residue: 150)” yielded a log2 fold change of 0.231.
“UniProt P02920 (peptide sequence: RSNFEFGR, peptide start residue: 135)” gave a log2 fold change of -0.33.
Target “UniProt P02942 (peptide sequence: GFAVVAGEVR, peptide start residue: 395)” has a log2 fold change of 0.151.
Work on “UniProt P03023 (peptide sequence: VVNQASHVSAK, peptide start residue: 23)” yielded a log2 fold change of 0.159.
“UniProt P00895 (peptide sequence: AGEIFQVVPSRR, peptide start residue: 258)” was tested, and the log2 fold change was -0.262.
For “UniProt A5A607 (peptide sequence: AYTSIKSDEE, peptide start residue: 55)”, the log2 fold change was 0.116.
“UniProt P02930 (peptide sequence: TTTSNGHNPFR, peptide start residue: 482)” gave a log2 fold change of 0.279.
In the case of “UniProt P00909 (peptide sequence: LLASVFQTLR, peptide start residue: 442)”, the log2 fold change is reported as -0.919.
Work on “UniProt P02924 (peptide sequence: VIAVDDQFVNAK, peptide start residue: 108)” yielded a log2 fold change of -0.242.
For “UniProt P00936 (peptide sequence: HYLNELELYR, peptide start residue: 72)”, the log2 fold change was -0.763.
In the case of “UniProt P02918 (peptide sequence: SDTQQGPTPR, peptide start residue: 387)”, the log2 fold change is reported as -0.245.
For “UniProt P00803 (peptide sequence: QAAAQAAAGDSLDK, peptide start residue: 35)”, the log2 fold change was -0.118.
In the case of “UniProt P05052 (peptide sequence: LRDEGTSFTEILR, peptide start residue: 173)”, the log2 fold change is reported as 0.369.
Target “UniProt P00944 (peptide sequence: RMEEHLR, peptide start residue: 37)” has a log2 fold change of 0.475.
Target “UniProt P06136 (peptide sequence: NSEEEVSSR, peptide start residue: 10)” has a log2 fold change of -0.153.
Work on “UniProt P05824 (peptide sequence: ETDGAMTETHMQSLNKK, peptide start residue: 508)” yielded a log2 fold change of 0.359.
For “UniProt P06134 (peptide sequence: YALADCELGR, peptide start residue: 191)”, the log2 fold change was 0.374.
Work on “UniProt P00894 (peptide sequence: LDAFLASIR, peptide start residue: 131)” yielded a log2 fold change of 0.674.
For “UniProt P02921 (peptide sequence: IQIHLLDKYR, peptide start residue: 443)”, the log2 fold change was 0.263.
“UniProt P04391 (peptide sequence: VTYLGPSGSQIGHK, peptide start residue: 74)” was tested, and the log2 fold change was -0.62.
Work on “UniProt P05042 (peptide sequence: SEKDSMGAIDVPADKLWGAQTQR, peptide start residue: 6)” yielded a log2 fold change of -0.239.
With “UniProt P02929 (peptide sequence: EAPVVIEKPKPK, peptide start residue: 84)” the log2 fold change was -0.793.
In the case of “UniProt P00935 (peptide sequence: AAAGISETLLR, peptide start residue: 351)”, the log2 fold change is reported as -0.344.
“UniProt P05827 (peptide sequence: LTTGDAADAMEK, peptide start residue: 124)” showed a log2 fold change of -0.344.
Target “UniProt P05100 (peptide sequence: ACFHQFDPVKVAAMQEEDVER, peptide start residue: 58)” has a log2 fold change of -0.667.
“UniProt P05706 (peptide sequence: GALHPGLQFSLGQHR, peptide start residue: 50)” gave a log2 fold change of -0.145.
In the case of “UniProt P00634 (peptide sequence: AAQGDITAPGGAR, peptide start residue: 33)”, the log2 fold change is reported as 0.0274.
In the case of “UniProt P06129 (peptide sequence: GTNASHVLVLIDGVR, peptide start residue: 90)”, the log2 fold change is reported as -0.288.
Work on “UniProt P05458 (peptide sequence: MAQVSAETINPAHPGSK, peptide start residue: 181)” yielded a log2 fold change of 0.431.
